Structures can show the parent of a compound that is named as a salt. Some of the results follow. The calls rarely recur for the same compound in another form.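 Kinases were expressed as nanoluciferase fusions in K562 cells and luminescence was read every 4 h between 2 and 18 h as percent of control, DMSO set to 100% and a positive control to 0%. A time point counts as decreased when the signal drops significantly (2 sigma). The hit call is the authors' own, does not follow from the count of time points alone, and its rule is not shown.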

By UniProt entry, the sequences of proteins in these tests, tags left out. Where a name states a change or a piece, a line headed by the entry shows the natural chain unless it says otherwise.
UniProt Q9Y6E0: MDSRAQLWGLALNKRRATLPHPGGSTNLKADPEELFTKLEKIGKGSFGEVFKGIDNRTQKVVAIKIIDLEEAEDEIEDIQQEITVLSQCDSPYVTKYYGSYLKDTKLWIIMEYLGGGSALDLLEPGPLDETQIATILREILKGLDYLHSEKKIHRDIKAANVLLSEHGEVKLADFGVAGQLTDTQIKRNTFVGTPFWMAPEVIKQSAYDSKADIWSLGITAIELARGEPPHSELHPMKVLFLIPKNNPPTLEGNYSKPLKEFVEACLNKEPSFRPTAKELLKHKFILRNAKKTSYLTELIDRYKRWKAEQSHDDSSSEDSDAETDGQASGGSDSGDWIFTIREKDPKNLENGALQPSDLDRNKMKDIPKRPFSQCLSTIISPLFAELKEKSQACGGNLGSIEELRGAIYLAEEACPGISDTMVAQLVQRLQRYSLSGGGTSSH

The first test deals with SRC (UniProt P12931). The test is described as follows: number of time points (of 5) at which kinase-Nluc abundance scored as decreased, DMSO-normalised (count); higher = more persistent destabilization. Conditions: K562; 2-18 h.
`COc1cc(N2CCOCC2)ccc1NC(=O)c1csc(-c2cccnc2)n1` [IRAK inhibitor 6] (10 µM): the “number of time points” value is 0. On to `CNc1nc(Nc2cn(C(C)(C)C#N)nc2C)ncc1C(F)(F)F` (10 µM), for which the “number of time points” value was 0.

As for `COc1nn(C)cc1Nc1nccc(-c2c[nH]c3c(NC(=O)[C@@H](C)N4CCN(C)CC4)cccc23)n1` (10 µM), the “number of time points” value was 0. Regarding `N#Cc1ccnc(Nc2cc(C3CCN(C4COC4)CC3)cc(N3CCC(F)(F)C3)n2)c1` (2.5 µM), the “number of time points” value came to 0. Take `Cc1cccc2c3c(ccc12)C(=O)C1=C(OCC1C)C3=O` (stereo not drawn) [Dihydroisotanshinone I] (2.5 µM): the “number of time points” value is 0. `CNc1nc(Nc2ccc(C(=O)N3CCOCC3)cc2OC)ncc1Cl` (2.5 µM): the “number of time points” value turned out to be 0. As to `CCN(CC)c1ccc2cc(-c3nc4cc(C)ccc4o3)c(=O)oc2c1` (10 µM), the “number of time points” value is 0. On the same count and under the same terms, in the case of `COc1ccccc1C(=O)/C=C/c1ccccc1C(=O)O` (10 µM) it was 0. Same read-out and setting: in the case of `CC(=O)N1CCC(c2cc(-c3ccc(NC(=O)c4cccn(-c5ccc(F)cc5)c4=O)cc3F)c3c(N)ncnn23)CC1` (0.5 µM) it was 0; in that of `O[C@@H]1CO[C@H]2[C@@H]1OC[C@H]2Oc1nc2nc(-c3ccc(-c4ccccc4)cc3)c(Cl)cc2[nH]1` (10 µM), 0.

The target of another test is STK24 (UniProt Q9Y6E0). Described as above. Conditions: K562; 2-18 h.
`C[C@@H]1COCCN1c1nc(-c2cnc(N)cc2C(F)F)nc(N2[C@H](C)COC[C@@H]2C)n1` (2.5 µM): the “number of time points” value amounted to 0. As for `O=C(O)c1cc(=O)c2c(OCC(O)COc3cccc4oc(C(=O)O)cc(=O)c34)cccc2o1` [Cromolyn (sodium)] (10 µM), the “number of time points” value was determined as 0. `CCc1ccc(OCC(=O)Nc2ccc(F)c([N+](=O)[O-])c2)cc1` (10 µM): the “number of time points” value was 0. `CC(C)S(=O)(=O)c1ccc2nccc(Nc3ccc4scnc4c3)c2c1` (10 µM): the “number of time points” value came out at 0. Regarding `CN1CC[C@@H](c2c(O)cc(O)c3c(=O)cc(-c4ccc(C(F)(F)F)cc4Cl)oc23)[C@@H]1CO` [Voruciclib (hydrochloride)] (10 µM), the “number of time points” value is 0. On to `CC(C)=CC(=O)O[C@H]1Cc2cc3ccc(=O)oc3cc2OC1(C)C` [Decursin] (10 µM), for which the “number of time points” value came out at 0.

As for `CC(C)C[C@@H](C(=O)Nc1ccn(C[C@@H](O)CO)n1)N1CC(Oc2ccccc2Cl)=CC1=O` [Dorzagliatin] (10 µM), the “number of time points” value came to 0. Take `CC(C)N1CCN(c2ccc(Nc3ncc4cc5n(c4n3)C3(CCCCC3)CNC5=O)nc2)CC1` [Lerociclib (dihydrochloride)] (2 µM): the “number of time points” value was found to be 0. For the compound `CCCCCCCCCCCCCCCCOP(=O)([O-])OCC[N+](C)(C)C` [Miltefosine] (10 µM), the “number of time points” value was found to be 0. `COCCNc1cc(NC(=O)N2CCCc3cc(CN4CCN(C)CC4=O)c(C=O)nc32)ncc1C#N` [Roblitinib] (10 µM): the “number of time points” value is 0. For `Cc1ccc(NC(=O)c2ccc(CN(CCN(C)C)C(=O)c3cccnc3)cc2)cc1Nc1nccc(-c2cccnc2)n1` [PDGFRα kinase inhibitor 1] (10 µM), the “number of time points” value stood at 0. On to `c1ccc(-c2nc(=NCCN3CCOCC3)sn2-c2ccccc2)cc1` [VP3.15 (dihydrobromide)] (10 µM), for which the “number of time points” value amounted to 0. On the same count and under the same terms, the figure for `O=C1NC(=Nc2c(Cl)cccc2Cl)S/C1=C\c1ccc2nccnc2c1` (2.5 µM) is 0; for `Cc1cc(-c2ccnc(Nc3cnn(C)c3)n2)ccc1CNC(=O)N1CC(OC(C)C)C1` (10 µM) it is 0. For `CN(C)S(=O)(=O)c1ccc2c(c1)/C(=C/c1cc3c([nH]1)CCCC3)C(=O)N2` (2.5 µM), the “number of time points” value turned out to be 0. The same measure, in the same setting: in the case of `Cc1cnc(NC2CCOCC2)nc1-n1cnc(C(=O)N[C@H](CN)c2cc(F)cc(Cl)c2)c1` (10 µM) it was 0; in that of `N#CC(c1ccnc(OCc2ccc(CN3CCOCC3)cc2)n1)c1nc2ccccc2s1` (stereo not drawn) [Bentamapimod] (2.5 µM), 0. Regarding `Cc1c(-c2ccc(C(N)=O)c3[nH]c4cc(C(C)(C)O)ccc4c23)cccc1-n1cnc2ccccc2c1=O` (2.5 µM), the “number of time points” value was found to be 0. Turning to `CN(C)c1nc2c(Br)c(Br)c(Br)c(Br)c2[nH]1` (10 µM), the “number of time points” value was found to be 0. In the case of `Nc1ncnc2c1c(-c1ccc(Oc3ccccc3)cc1)nn2C1CCN(CCOCCOCCOc2ccc3c(c2)CN(C2CCC(=O)NC2=O)C3=O)CC1` (stereo not drawn) (2.5 µM), the “number of time points” value was 0. Still for that read-out and setting: the figure for `O=[N+]([O-])c1ccc(Nc2nc(N3CCOCC3)nc(N3CCOCC3)n2)cc1` (10 µM) is 0; for `C[C@H](Nc1ncnc2[nH]cnc12)c1cc2ccc(F)cc2nc1-c1ccccn1` (10 µM) it is 0.

Turning to `CCc1cccc(CC)c1NC(=O)N1Cc2[nH]nc(NC(=O)c3ccc(N4CCN(C)CC4)cc3)c2C1` (2.5 µM), the “number of time points” value is 0.

With `CCc1cncnc1N1CCN(Cc2nc3ccc(C(F)(F)F)cc3[nH]2)CC1` (10 µM), the “number of time points” value was 0. `COc1cc(-c2cn[nH]c2)ccc1C(=O)Nc1ccc2c(c1)CCNCC2` (10 µM): the “number of time points” value came to 0. Same read-out and setting: in the case of `Cn1cc2cc(C(F)(F)c3nnc4ccc(-c5cnn(C6CC6)c5)nn34)c(F)cc2n1` [Bozitinib] (10 µM) it was 0; in that of `O=Nc1c2[nH]c3ccccc3nc-2c2ccccc12` [IQ-1S (free acid)] (2.5 µM), 0. With `CCN(CC)c1cc2oc(=O)c(-c3nc4ccccc4o3)cc2cc1C` (2.5 µM), the “number of time points” value was determined as 0. In the case of `COc1cc(N2CCOCC2)ccc1NC(=O)c1csc(-c2cccnc2)n1` [IRAK inhibitor 6] (10 µM), the “number of time points” value is 0. For `CNc1nc(Nc2cn(C(C)(C)C#N)nc2C)ncc1C(F)(F)F` (10 µM), the “number of time points” value worked out at 0. For the compound `COc1nn(C)cc1Nc1nccc(-c2c[nH]c3c(NC(=O)[C@@H](C)N4CCN(C)CC4)cccc23)n1` (10 µM), the “number of time points” value was 0. Take `N#Cc1ccnc(Nc2cc(C3CCN(C4COC4)CC3)cc(N3CCC(F)(F)C3)n2)c1` (2.5 µM): the “number of time points” value amounted to 0. As to `Cc1cccc2c3c(ccc12)C(=O)C1=C(OCC1C)C3=O` (stereo not drawn) [Dihydroisotanshinone I] (2.5 µM), the “number of time points” value was found to be 0.

With `CNc1nc(Nc2ccc(C(=O)N3CCOCC3)cc2OC)ncc1Cl` (2.5 µM), the “number of time points” value is 0. As to `CCN(CC)c1ccc2cc(-c3nc4cc(C)ccc4o3)c(=O)oc2c1` (10 µM), the “number of time points” value was 0. With `COc1ccccc1C(=O)/C=C/c1ccccc1C(=O)O` (10 µM), the “number of time points” value is 0. Turning to `CC(=O)N1CCC(c2cc(-c3ccc(NC(=O)c4cccn(-c5ccc(F)cc5)c4=O)cc3F)c3c(N)ncnn23)CC1` (0.5 µM), the “number of time points” value stood at 0. Still for that read-out and setting: the figure for `O[C@@H]1CO[C@H]2[C@@H]1OC[C@H]2Oc1nc2nc(-c3ccc(-c4ccccc4)cc3)c(Cl)cc2[nH]1` (10 µM) is 0.
